According to patent US5380531A, “Accumulations of amino acids and peptides into liposomes” (The Liposome Company, Inc., priority 1992, dated 1995):
Not every detail of the peptide structures is certain; ends, links or a residue may be inferred. Peptide text beside a SMILES is read from it.

Legend:
[1] = Loading into EPC LUVs bearing a 7.5/4.0 (external/internal) transmembrane pH gradient; format: physicochemical; settings: incubation at 23° C. for about 1 hour
[2] = Loadability into liposomes by the transmembrane concentration gradient method of the invention (summary statements); format: physicochemical; settings: result in words

SMILES	loading into LUVs [1]	whether loadable by the transmembrane concentration gradient method [2]
COC(=O)[C@H](CCCCN)NC(=O)[C@H](CCCCN)NC(=O)[C@H](CCCCN)NC(=O)[C@H](CCCCN)NC(=O)[C@@H](N)CCCCN [(Lys)5 methyl ester] (H-KKKKK-OMe)	0 nmoles peptide/umoles lipid	cannot be loaded
COC(=O)[C@H](C)NC(=O)[C@H](C)NC(=O)[C@H](C)NC(=O)[C@H](C)NC(=O)[C@@H](N)CCCCN [(Lys-(Ala)4) methyl ester] (H-KAAAA-OMe)	0 nmoles peptide/umoles lipid	cannot be loaded
